PubChem BioAssay AID504793 | Drosophila RNAi Screening Center – 2011

- Assay: 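Whole-genome screen for parts of the DNA damage checkpoint at G2/M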 (primary screen)
- Cells: Drosophila S2R+ cells
- Reagents: long dsRNA against Drosophila genes, about 0.25 µg dsRNA per well
- Duration: 4 days of dsRNA, then 4 hours of drug before read-out
- Challenge: doxorubicin 0.5 µM for 4 hours to cause double-strand breaks, in cells also given a low, harmless dose of dsRNA against nbs to sensitise the assay
- Detection: 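Per-well count of mitotic cells stained for phospho-histone H3 after doxorubicin exposure, used as mitotic index; counts are raw and not normalised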
- Direction: mitotic cells: higher = more cells in mitosis, weaker G2 arrest
- Active means: 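a call needs confirmation in secondary tests, with other dsRNAs and a check of mitotic timing without damage, not just a high primary count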
- Meaning of the calls: active = confirmed in follow-up tests; inactive = not confirmed
In all, the deposit lists about 23,000 reagents; shown is an unselected part of those that have a named target and a result. In the full data, 62 (0.27%) were called active. 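Calls come from follow-up tests whose scores are not deposited, so confirmed genes may have low counts here; counts are not normalised per plate.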 Raw values vary from plate to plate and are shown uncorrected. Names joined by + are all predicted targets of the reagent.

| gene knocked down | dsRNA | mitotic cells, replicate 1 | Call |
| --- | --- | --- | --- |
| nw (narrow) | DRSC06749 | 8 | inactive |
| nw (narrow) | DRSC06896 | 8 | inactive |
| nw (narrow) | DRSC25619 | 4 | inactive |
| sty (sprouty) | DRSC22994 | 11 | inactive |
| sty (sprouty) | DRSC25779 | 4 | inactive |
| CG3701 (retired record) | DRSC04408 | 9 | inactive |
| CG3701 (retired record) | DRSC04409 | 6 | inactive |
| CG13658 | DRSC14659 | 10 | inactive |
| CG13658 | DRSC25434 | 7 | inactive |
| CG11594 | DRSC08207 | 5 | inactive |
| RIOK1 (RIO kinase 1) | DRSC09853 | 5 | inactive |
| Rab5 | DRSC00777 | 12 | inactive |
| Rab5 | DRSC23710 | 9 | inactive |
| Dgkepsilon (Diacyl glycerol kinase epsilon) | DRSC07399 | 7 | inactive |
| Galphaf (G protein alpha subunit f) | DRSC11171 | 5 | inactive |
| LysD (Lysozyme D) | DRSC26238 | 10 | inactive |
| p47 | DRSC06046 | 9 | inactive |
| ave (aveugle) | DRSC05502 | 6 | inactive |
| ave (aveugle) | DRSC28562 | 4 | inactive |
| Mst36Fa (Male-specific transcript 36Fa) | DRSC21564 | 13 | inactive |
| Mst36Fa (Male-specific transcript 36Fa) | DRSC26339 | 6 | inactive |
| CG17186 | DRSC15180 | 7 | inactive |
| CG17186 | DRSC27612 | 17 | inactive |
| Oga (O-GlcNAcase) | DRSC15901 | 9 | inactive |
| LIMK1 (LIM domain kinase 1) | DRSC19811 | 3 | inactive |
| larp (La related protein) | DRSC14728 | 16 | inactive |
| larp (La related protein) | DRSC16984 | 9 | inactive |
| larp (La related protein) | DRSC21856 | 12 | inactive |
| larp (La related protein) | DRSC24427 | 5 | inactive |
| larp (La related protein) | DRSC28325 | 6 | inactive |
| Sodh1 (Sorbitol dehydrogenase 1) | DRSC12605 | 9 | inactive |
| Sodh1 (Sorbitol dehydrogenase 1) | DRSC26280 | 6 | inactive |
| CG2145 | DRSC19835 | 9 | inactive |
| CG2145 | DRSC27564 | 8 | inactive |
| CG14995 | DRSC22991 | 11 | inactive |
| CG31715 | DRSC21607 | 12 | inactive |
| Pdf (Pigment-dispersing factor) | DRSC16786 | 14 | inactive |
| CR18228 (pseudo) | DRSC15317 | 4 | inactive |
| Atg10 + CG18853 + CG12822 | DRSC20757 | 16 | inactive |
| ric8b + ric8a | DRSC18104 | 8 | inactive |
| psq (pipsqueak) | DRSC23094 | 14 | inactive |
| psq (pipsqueak) | DRSC38444 | 4 | inactive |
| CG14391 | DRSC14850 | 4 | inactive |
| CG14391 | DRSC28373 | 11 | inactive |
| kek1 (kekkon 1) | DRSC03551 | 6 | inactive |
